The other results are listed elsewhere or left out.
B1: il2ra_site2_3nfp_sap_20_mot_d42de0cc81f4e0b3186ba921eb477610_0001_000000258_0001_1_14_H_._HHH_b1_00939_0001_0000200012_0000001_0_0001 (protein)
chain: SSSSSEEVEERVRELLEQAEKITDEEEVRKLLAEAARLAFENNDHELFMLVAEVAYRLVKSSSSS
B2: il2ra_site1_3nfp_normal_mot_HHH_b2_03322_af2_000000115_0001_43_57_H_._HHH_b1_01335_af2_0001_0000200002_0000001_0 (protein)
chain: SSSSSSDEAEEYLEELERLLEENDAHRFAQVTKEALRVANRENDEELSKLIERLLKRAASSSSSS
B3: il2ra_site1_1z92_normal_mot_HHH_b2_04375_000000267_0001_42_56_H_._HHH_b2_06256_0001_0000200013_0000001_0_af2pred_0001_af2pred_1_swapped (protein)
chain: SSSSSDEEEAEQVVERLVEEFGLSEEDKEVLERLAKQALERGLSEKSIHRALHFAAERAGSSSSS
B4: il2ra_site2_2erj_normal_mot_HHH_b1_03107_000000098_0001_39_52_H_._HHH_b2_05000_0001_0000600020_0000001_0 (protein)
chain: SSSSSDQEEVWREVAELLARAAHIKDPEEVEELLEEARRLAEEANNEILKRYIKFAEEDHSSSSS
B5: il2ra_site1_2b5i_sap_15_mot_HHH_b1_07936_af2_000000056_0001_1_17_H_._HHH_b1_06486_af2_0001_0000300010_0000001_0_0001_af2pred_dldesign_0_af2pred (protein)
chain: SSSSLEKISDKIHELYEKYNLSSEEYNDLVRKASRMIYEGKSEEEIIKELEAEAEELKKGSSSSS
B6: il2ra_site2_3nfp_normal_mot_HHH_b1_00660_af2_000000090_0001_40_57_H_._HHH_b1_04854_af2_0001_0000100002_0000001_0_af2pred_0001_1_af2pred_swapped (protein)
chain: SSSSSSDEEEEVEKLLERAKHIEDEEEALMLLLLAREIAEELNDEELERLVQEVLRELSSSSSSS
B7: il2ra_site2_2erj_sap_17_mot_HHH_b1_00449_000000059_0001_39_52_H_._HHH_b2_06170_0001_0000100002_0000001_0_0001 (protein)
chain: SSSSDEELHELYELAVRLLHLFARGDREEFEETAREARELAEERQSPTVREVVEWMLRELSSSSS
B8: il2ra_site2_3nfp_normal_mot_HHH_b1_00660_af2_000000090_0001_40_57_H_._HHH_b1_05946_0001_0000800022_0000001_1_af2pred_0001_af2pred (protein)
chain: SSSSSDLAEEAEELAEEARHVEDPEERRKILARASELAYEANDFEVFALIVLVFNQLERSSSSSS
B9: il2ra_site2_2erj_normal_mot_HHH_b2_00058_000000252_0001_23_39_H_._HHH_b2_01208_0001_0000400015_0000001_1_af2pred_0001_af2pred (protein)
chain: SSSSSDEEQEVEMILLFAEFAYEQGNPENAKLAAERALELAEEINNPELAREIEETLQRLLSSSS
B10: il2ra_site1_3nfp_normal_mot_HHH_b2_04095_af2_000000004_0001_43_56_H_._16934e337390fad51c35c10e6cd388ee_0001_1_0001_0000100012_0000001_0 (protein)
chain: PERLLKKFLEQAKKAPDPEVQEIVEEVEEVLKRDPEKALELLLELLREYGDPVAARFVEDLLRLA
B11: il2ra_site1_1z92_normal_mot_HHH_b1_03515_000000289_0001_1_19_H_._HHH_b1_04183_af2_0001_0000300032_0000001_0 (protein)
chain: SSSSSDERRAAKVIVKVLVRANGLSEEQEEELQELAEELVKRGLDPLEIIKLLDRLAAELSSSSS
B12: il2ra_site1_3nfp_sap_21_mot_HHH_b1_02637_af2_000000013_0001_1_18_H_._HHH_b1_06468_0001_0000100003_0000001_0_0001_af2pred_0001_af2pred_1_swapped (protein)
chain: SSSSTEELTRFVAELAREFNLDHKVLHELLRLVAKLLAEGLSEEEIKKILKELAEELERELSSSS
B13: il2ra_site1_1z92_sap_16_mot_HHH_b1_01467_000000208_0001_22_39_H_._HHH_b2_07023_0001_0000100002_0000001_0_0001_af2pred_0001_af2pred (protein)
chain: SSSSSDLEEIAEELVEELVEEFNLSEEEERALRKAAEDAVKAGFSPKSVEYALRAAVKYLSSSSS
B14: il2ra_site1_1z92_normal_mot_be5bd3f495b2ba9d9abb66d04d14a4bf_0001_000000146_0001_37_51_H_._104f9518c2e4434ea70fdb64017d7000_0001_af2_0001_0000100001_0000001_0_a … (protein)
chain: GPEEVIEIIAEAAGLPPEAVERDVKRTAELLNIPPEEALRAALLVVRKEDPRFEEEVEEAERLLK
B15: il2ra_site2_2erj_normal_mot_c2bf78bdce995293a161f7082e24b401_0001_af2_000000082_0001_17_32_H_._HHH_b2_04590_af2_0001_0000300025_0000001_0 (protein)
chain: SSSSNEELRRLYELANQILRLLYEGDEEEARELLRELEELAEKTQSDAVKEIVERLKQELSSSSS
B16: il2ra_site1_2b5i_normal_mot_2cbe48e66a1f39b3fed734b245ab0a04_0001_000000015_0001_17_31_H_._HHH_b2_00579_0001_0000300020_0000001_1_af2pred_dldesign_0_af2pred (protein)
chain: SSSSSDEKKREEVLKLIEEAKELEDPFEAERVLFKAYFLAYSSGDEELVAEVERVFNELSSSSSS
B17: il2ra_site1_2b5i_sap_14_mot_a3b61943b7af24100a309c62926c5c00_0001_af2_000000225_0001_17_32_H_._HHH_b1_03251_0001_0000100011_0000001_0_0001_af2pred_dldesign_0_af … (protein)
chain: SSSSDAAWDEVERLFEEAERLRRAGKPEEARELLERALEIAEANNLTTPAADLRRLLERLSSSSS
B18: il2ra_site1_3nfp_normal_mot_HHH_b2_00857_af2_000000076_0001_1_16_H_._HHH_b1_07967_0001_0000700051_0000001_0_af2pred_0001_af2pred (protein)
chain: SSSSDVEERLEQLLKELEELAERNDTRRFAEVAKEIAKLVDRHDDEEAWRLLRRILREAAGSSSS
B19: il2ra_site1_1z92_normal_mot_HHH_b2_04375_000000267_0001_42_56_H_._HHH_b1_02142_af2_0001_0000200033_0000001_0_af2pred_0001_af2pred_1 (protein)
chain: SSSSDLEEEAKKLVEEIVEELGLSEEDERALRRSAEIAVERGFSEKSIRRALEDAARLLRSSSSS
B20: il2ra_site1_1z92_sap_18_mot_HHH_b1_07323_af2_000000200_0001_41_57_H_._HHH_b2_05598_0001_0000100002_0000001_0_0001 (protein)
chain: DEEALKKDIEAARRLGLPPRSIVLALLRFVRREVGDPEEAERILEELLEKLGDPELLEVLEELIK
B21: il2ra_site1_3nfp_sap_16_mot_HHH_b2_04366_af2_000000103_0001_1_19_H_._HEEHE_1202_0001_0000100003_0000001_1_0001_af2pred_0001_af2pred_swapped (protein)
chain: SKERVKEFLERQIKEYAGADDLEVEFRDRKIEVHVRGTDEKAEEASERAKKLVRKLGIEVEVEVE
B22: il2ra_site2_2erj_sap_28_mot_3b06bd03f1c6bceadc68eab912867b79_0001_000000296_0001_36_50_H_._HHH_b2_07644_af2_0001_0000200004_0000001_0_0001 (protein)
chain: SSSSSDELKRAYELANALMHLVARNDREEFERISEEFEEIVEKLDSRTAREILESLERLISSSSS
B23: il2ra_site1_2b5i_normal_mot_HHH_b2_04910_000000118_0001_1_19_H_._HHH_b1_07122_af2_0001_0000200012_0000001_0_af2pred_0001_af2pred_1 (protein)
chain: SSSSDTEEAVRLLEEANEAFRNGNPEEAEELLEEALEIAKEAGNRLLFRMIKVALEQVRKFSSSS
B24: il2ra_site2_3nfp_sap_21_mot_HHH_b2_00822_000000043_0001_41_55_H_._29ae1e08a2b4f440a426d3aa34ece464_0001_af2_0001_0000100009_0000001_0_0001 (protein)
chain: SSSSSKAEEYLKAALELLREALEHGDEEILRSHAEVVLAMAEDLGDEEAERLAEEILEELSSSSS

The binders below were run against il2ra, P01589 (assay: yeast display titration).

Apparent Kd, inactive:
B1 no binding seen
B2 no binding seen
B3 no binding seen
B4 no binding seen
B5 no binding seen
B6 no binding seen
B7 no binding seen
B8 no binding seen
B9 no binding seen
B10 no binding seen
B11 no binding seen
B12 no binding seen
B13 no binding seen
B14 no binding seen
B15 no binding seen
B16 no binding seen
B17 no binding seen
B18 no binding seen
B19 no binding seen
B20 no binding seen
B21 no binding seen
B22 no binding seen
B23 no binding seen
B24 no binding seen

Random excerpt: two entries already listed, in no set order.
Apparent Kd, inactive:
B9 no binding seen
B7 no binding seen
